# Measured values published in patent US20260284208A1, “SYSTEM” (Oxford University Innovation Limited, priority 2023, published 2026).
# Further values from the same series stand in other lists.
# System: library of 8,380 IKZF3 degrons (ZF-eGFP/mCherry reporter) in Jurkat cells
# Experiment: Pooled library screen (FACS, NGS, limma voom LogFC of positive vs negative read counts)
# Type: cell-based, human
# Experimental: A library of 8,380 IKZF3 degrons was cloned into pLVX-Sprout to create the eGFP/mCherry protein degradation reporter plasmid pool. A lentivirus pool was then generated using the Lenti-X lentiviral vector production method.
# Jurkat cells were transduced at a multiplicity of infection of <0.3 with the lentivirus vector library in order to maximise the number of cells with a single integration. Transductions were carried out in 6 well TC-treated cell culture dishes (Falcon) with 3×10^6 cells per well. Cells were incubated for 2 days at 37° C. and 5% CO2 before the supernatant was removed and replaced with fresh media. 6 days post-transduction, mCherry+ cells were isolated via FACS using the FACS Aria Fusion (BD) in a buffer containing PBS (Gibco), 2 mM EDTA (Gibco), 25 mM HEPES (Sigma) and 1% BSA (Sigma). 8 days later, cells were treated with DMSO or a thalidomide analog for 18 hours at 37° C. and 5% CO2. mCherry+GFPlow and NOT(mCherry+GFPlow) cells were sorted by FACS using the FACS Aria Fusion (BD). DMSO treated cells were used to set the mCherry+GFPlow gate and dead cells were excluded from sorting by staining cells with 1 μg/mL DAPI (ThermoFisher). gDNA was isolated using the Maxwell RSC 48 (Promega). gDNA from cells that were unsorted and untreated were also isolated to determine the library representation on the day of compound treatment. Throughout the screen >600× coverage of the library was maintained. 3 biological replicates were carried out with a new transduction taking place each time.
# A two-step PCR was used where the first PCR (PCR1) amplified the integrated degron sequence from gDNA and the second PCR (PCR2) added Illumina adaptors and barcodes to permit multiplexing. See Supp F for PCR1 and PCR2 primers. Q5 Hot Start High-Fidelity 2× Master Mix (New England Biolabs) was used for both PCRs. Sufficient gDNA was amplified in PCR1 in order to maintain >600× coverage and amplicons were purified using solid phase reversible immobilization (SPRI) beads (Beckman Coulter). Purified PCR1 products were analysed on the Tapestation 4200 (Agilent) to confirm purity prior to proceeding to PCR2. Sufficient PCR1 product was amplified in PCR2 in order to maintain >600× coverage and amplicons were run on a 2% agarose TAE gel. Target bands were excised and purified using the NucleoSpin Gel and PCR Clean-up Kit (Machery Nagel). Amplicons were analysed on the Tapestation 4200 and quantified using Qubit dsDNA HS kit (ThermoFisher). PCR products were pooled and sequenced as paired-reads on the NovaSeq (Illumina) using a SP2 200 cycles kit (Illumina).
# Count distributions, percentage of read mapping, library coverage and replicate correlation per sample were assessed for QC purposes.
# To carry out the library screen, we used the same plasmid construct as in our earlier flow cytometry assays, but pooling all 8,380 mutants together into one Jurkat population, ensuring a copy number of one plasmid per cell (FIG. 4B). […] These GFP-negative cells were then separated from the remaining GFP-positive population using fluorescence activated cell sorting (FACS). These two populations were then sequenced and the relative abundance of every mutant in both populations compared to provide a log FC value for each mutant sequence. This value indicated how frequently a sequence is observed in the GFP-negative population relative to the GFP-positive population, and therefore how effective a degron it is for that particular IMID compound.
smiles,measurement,setting,value
O=C1CCC(N2C(=O)c3ccc(N4CCOCC4)cc3C2=O)C(=O)N1 (stereo not shown) [B03],B03_logFC,"Degron-ID 1793, SEQ ID NO 3927, 46F_47I_49E_50V_52G_53A_54Q_55F_67L",2.796
same,B03_logFC,"Degron-ID 1794, SEQ ID NO 4399, 46F_47I_49E_50V_52G_53A_54R_55F_67L_",2.038
same,B03_logFC,"Degron-ID 1795, SEQ ID NO 3881, 46F_47I_49E_50V_52G_53A_54S_55F_67L",2.88
same,B03_logFC,"Degron-ID 1860, SEQ ID NO 3740, 46F_47I_49P_50I_52G_53A_54A_55F_67L_",3.147
same,B03_logFC,"Degron-ID 1861, SEQ ID NO 4418, 46F_47I_49P_50I_52G_53A_54C_55F_67L_",2.019
same,B03_logFC,"Degron-ID 1863, SEQ ID NO 4322, 46F_47I_49P_50I_52G_53A_54E_55F_67L_",2.172
same,B03_logFC,"Degron-ID 1866, SEQ ID NO 4339, 46F_47I_49P_50I_52G_53A_54H_55F_67L_",2.146
same,B03_logFC,"Degron-ID 1873, SEQ ID NO 3897, 46F_47I_49P_50I_52G_53A_54Q_55F_67L",2.856
same,B03_logFC,"Degron-ID 1875, SEQ ID NO 3888, 46F_47I_49P_50I_52G_53A_54S_55F_67L",2.873
same,B03_logFC,"Degron-ID 1879, SEQ ID NO 4411, 46F_47I_49P_50I_52G_53A_54Y_55F_67L_",2.029
same,B03_logFC,"Degron-ID 1900, SEQ ID NO 3894, 46F_47I_49P_50V_52G_53A_54A_55F_67L",2.862
same,B03_logFC,"Degron-ID 1901, SEQ ID NO 4384, 46F_47I_49P_50V_52G_53A_54C_55F_67L_",2.062
same,B03_logFC,"Degron-ID 1911, SEQ ID NO 3912, 46F_47I_49P_50V_52G_53A_54N_55F_67L",2.828
same,B03_logFC,"Degron-ID 1914, SEQ ID NO 4372, 46F_47I_49P_50V_52G_53A_54R_55F_67L_",2.085
same,B03_logFC,"Degron-ID 2112, SEQ ID NO 4284, 46F_47K_49P_50I_52G_53A_54P_55F_67L_",2.243
same,B03_logFC,"Degron-ID 2172, SEQ ID NO 4334, 46F_47L_49D_50I_52G_53A_54P_55F_67L_",2.151
same,B03_logFC,"Degron-ID 2232, SEQ ID NO 3916, 46F_47L_49E_50I_52G_53A_54P_55F_67L",2.822
same,B03_logFC,"Degron-ID 2352, SEQ ID NO 3817, 46F_47L_49P_50I_52G_53A_54P_55F_67L_",2.979
same,B03_logFC,"Degron-ID 2412, SEQ ID NO 3687, 46F_47M_49D_50I_52G_53A_54P_55F_67L_",3.249
same,B03_logFC,"Degron-ID 2505, SEQ ID NO 4427, 46F_47M_49E_50V_52G_53A_54G_55F_67L_",2.012
same,B03_logFC,"Degron-ID 2532, SEQ ID NO 3778, 46F_47M_49N_50I_52G_53A_54P_55F_67L_",3.048
same,B03_logFC,"Degron-ID 2620, SEQ ID NO 4306, 46F_47M_49P_50V_52G_53A_54A_55F_67L_",2.209
same,B03_logFC,"Degron-ID 2625, SEQ ID NO 4340, 46F_47M_49P_50V_52G_53A_54G_55F_67L_",2.14
same,B03_logFC,"Degron-ID 2635, SEQ ID NO 4398, 46F_47M_49P_50V_52G_53A_54S_55F_67L_",2.039
same,B03_logFC,"Degron-ID 2832, SEQ ID NO 3705, 46F_47N_49P_50I_52G_53A_54P_55F_67L_",3.203
same,B03_logFC,"Degron-ID 2872, SEQ ID NO 4043, 46F_47N_49P_50V_52G_53A_54P_55F_67L",2.617
same,B03_logFC,"Degron-ID 2881, SEQ ID NO 4355, 46F_47Q_49D_50I_52G_53A_54C_55F_67L_",2.117
same,B03_logFC,"Degron-ID 2888, SEQ ID NO 4280, 46F_47Q_49D_50I_52G_53A_54K_55F_67L_",2.247
same,B03_logFC,"Degron-ID 2892, SEQ ID NO 3744, 46F_47Q_49D_50I_52G_53A_54P_55F_67L_",3.141
same,B03_logFC,"Degron-ID 2932, SEQ ID NO 4358, 46F_47Q_49D_50V_52G_53A_54P_55F_67L_",2.109
same,B03_logFC,"Degron-ID 2940, SEQ ID NO 3931, 46F_47Q_49E_50I_52G_53A_54A_55F_67L",2.786
same,B03_logFC,"Degron-ID 2941, SEQ ID NO 3769, 46F_47Q_49E_50I_52G_53A_54C_55F_67L_",3.082
same,B03_logFC,"Degron-ID 2947, SEQ ID NO 3726, 46F_47Q_49E_50I_52G_53A_54I_55F_67L_",3.158
same,B03_logFC,"Degron-ID 2948, SEQ ID NO 3833, 46F_47Q_49E_50I_52G_53A_54K_55F_67L_",2.953
same,B03_logFC,"Degron-ID 2950, SEQ ID NO 4292, 46F_47Q_49E_50I_52G_53A_54M_55F_67L_",2.236
same,B03_logFC,"Degron-ID 2953, SEQ ID NO 4288, 46F_47Q_49E_50I_52G_53A_54Q_55F_67L_",2.238
same,B03_logFC,"Degron-ID 2954, SEQ ID NO 4364, 46F_47Q_49E_50I_52G_53A_54R_55F_67L_",2.097
same,B03_logFC,"Degron-ID 2955, SEQ ID NO 3925, 46F_47Q_49E_50I_52G_53A_54S_55F_67L",2.799
same,B03_logFC,"Degron-ID 2980, SEQ ID NO 3652, 46F_47Q_49E_50V_52G_53A_54A_55F_67L_",3.341
same,B03_logFC,"Degron-ID 2987, SEQ ID NO 3773, 46F_47Q_49E_50V_52G_53A_54I_55F_67L_",3.067
same,B03_logFC,"Degron-ID 2988, SEQ ID NO 3815, 46F_47Q_49E_50V_52G_53A_54K_55F_67L_",2.983
same,B03_logFC,"Degron-ID 2990, SEQ ID NO 4357, 46F_47Q_49E_50V_52G_53A_54M_55F_67L_",2.113
same,B03_logFC,"Degron-ID 2995, SEQ ID NO 3867, 46F_47Q_49E_50V_52G_53A_54S_55F_67L",2.895
